Measured values from the supplement of paper PMC10849652.
Some of the results follow.

By UniProt entry, the sequences of proteins in these tests, tags left out. Where a name states a change or a piece, a line headed by the entry shows the natural chain unless it says otherwise.
UniProt Q13572: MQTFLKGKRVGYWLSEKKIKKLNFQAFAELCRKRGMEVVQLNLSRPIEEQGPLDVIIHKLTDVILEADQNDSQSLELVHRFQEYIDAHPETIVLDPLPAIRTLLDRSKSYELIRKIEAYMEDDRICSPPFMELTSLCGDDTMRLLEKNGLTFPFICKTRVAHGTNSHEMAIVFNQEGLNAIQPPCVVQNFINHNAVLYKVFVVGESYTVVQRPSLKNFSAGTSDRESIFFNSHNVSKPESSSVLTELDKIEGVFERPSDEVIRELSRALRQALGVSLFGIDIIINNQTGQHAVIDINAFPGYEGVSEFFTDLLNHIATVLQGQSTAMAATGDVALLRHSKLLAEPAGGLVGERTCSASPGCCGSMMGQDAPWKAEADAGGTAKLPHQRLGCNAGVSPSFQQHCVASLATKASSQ
UniProt Q14681: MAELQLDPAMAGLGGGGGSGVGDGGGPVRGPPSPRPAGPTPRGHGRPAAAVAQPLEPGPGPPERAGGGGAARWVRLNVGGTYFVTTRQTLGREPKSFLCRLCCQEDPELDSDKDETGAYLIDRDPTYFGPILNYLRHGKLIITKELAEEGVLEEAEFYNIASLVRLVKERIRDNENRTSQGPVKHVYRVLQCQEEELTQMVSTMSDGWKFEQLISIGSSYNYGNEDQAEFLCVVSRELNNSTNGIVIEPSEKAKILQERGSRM
UniProt Q9NZM3: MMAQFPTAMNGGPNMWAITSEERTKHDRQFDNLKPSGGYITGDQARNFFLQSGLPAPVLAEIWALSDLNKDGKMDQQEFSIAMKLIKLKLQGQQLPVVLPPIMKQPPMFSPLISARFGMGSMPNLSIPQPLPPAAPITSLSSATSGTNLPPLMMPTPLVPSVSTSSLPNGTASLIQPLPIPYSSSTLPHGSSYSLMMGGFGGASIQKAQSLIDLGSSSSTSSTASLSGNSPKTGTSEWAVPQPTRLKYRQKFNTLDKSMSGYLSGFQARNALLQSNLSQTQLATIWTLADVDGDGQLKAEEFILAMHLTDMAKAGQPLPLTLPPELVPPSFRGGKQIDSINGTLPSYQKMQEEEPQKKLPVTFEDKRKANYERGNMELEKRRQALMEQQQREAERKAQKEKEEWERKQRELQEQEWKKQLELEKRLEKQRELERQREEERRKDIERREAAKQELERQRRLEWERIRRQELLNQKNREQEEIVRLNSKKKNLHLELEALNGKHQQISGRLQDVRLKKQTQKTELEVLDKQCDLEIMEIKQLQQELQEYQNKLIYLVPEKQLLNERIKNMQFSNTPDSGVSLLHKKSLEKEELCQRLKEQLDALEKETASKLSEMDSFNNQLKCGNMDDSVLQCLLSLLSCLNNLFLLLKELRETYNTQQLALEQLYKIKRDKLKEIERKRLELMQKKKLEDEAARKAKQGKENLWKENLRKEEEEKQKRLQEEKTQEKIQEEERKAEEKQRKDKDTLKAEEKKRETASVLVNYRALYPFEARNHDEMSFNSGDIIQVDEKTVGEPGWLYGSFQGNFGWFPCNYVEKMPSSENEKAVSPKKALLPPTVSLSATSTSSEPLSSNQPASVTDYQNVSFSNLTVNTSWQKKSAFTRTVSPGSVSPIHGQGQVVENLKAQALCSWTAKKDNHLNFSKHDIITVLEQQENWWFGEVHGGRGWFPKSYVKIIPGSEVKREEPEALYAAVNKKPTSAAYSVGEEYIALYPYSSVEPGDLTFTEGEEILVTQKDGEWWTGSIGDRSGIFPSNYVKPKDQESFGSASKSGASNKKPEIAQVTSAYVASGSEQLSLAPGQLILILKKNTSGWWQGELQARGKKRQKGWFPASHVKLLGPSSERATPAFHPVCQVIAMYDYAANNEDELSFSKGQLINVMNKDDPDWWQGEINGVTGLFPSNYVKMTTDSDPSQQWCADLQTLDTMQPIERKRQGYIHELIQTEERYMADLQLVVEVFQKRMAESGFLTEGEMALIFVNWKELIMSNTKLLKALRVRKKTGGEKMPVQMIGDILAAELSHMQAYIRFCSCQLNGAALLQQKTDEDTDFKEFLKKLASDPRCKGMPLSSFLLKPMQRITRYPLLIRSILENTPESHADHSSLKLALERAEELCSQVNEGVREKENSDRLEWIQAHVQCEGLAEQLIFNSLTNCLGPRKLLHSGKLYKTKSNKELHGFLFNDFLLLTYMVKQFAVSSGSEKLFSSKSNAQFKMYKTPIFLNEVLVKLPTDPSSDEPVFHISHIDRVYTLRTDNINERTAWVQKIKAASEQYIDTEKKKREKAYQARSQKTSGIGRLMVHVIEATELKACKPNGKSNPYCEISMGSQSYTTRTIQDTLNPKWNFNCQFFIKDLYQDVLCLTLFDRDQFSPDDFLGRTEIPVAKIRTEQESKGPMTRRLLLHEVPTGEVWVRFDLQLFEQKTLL
UniProt Q92993, whole entry, looked up: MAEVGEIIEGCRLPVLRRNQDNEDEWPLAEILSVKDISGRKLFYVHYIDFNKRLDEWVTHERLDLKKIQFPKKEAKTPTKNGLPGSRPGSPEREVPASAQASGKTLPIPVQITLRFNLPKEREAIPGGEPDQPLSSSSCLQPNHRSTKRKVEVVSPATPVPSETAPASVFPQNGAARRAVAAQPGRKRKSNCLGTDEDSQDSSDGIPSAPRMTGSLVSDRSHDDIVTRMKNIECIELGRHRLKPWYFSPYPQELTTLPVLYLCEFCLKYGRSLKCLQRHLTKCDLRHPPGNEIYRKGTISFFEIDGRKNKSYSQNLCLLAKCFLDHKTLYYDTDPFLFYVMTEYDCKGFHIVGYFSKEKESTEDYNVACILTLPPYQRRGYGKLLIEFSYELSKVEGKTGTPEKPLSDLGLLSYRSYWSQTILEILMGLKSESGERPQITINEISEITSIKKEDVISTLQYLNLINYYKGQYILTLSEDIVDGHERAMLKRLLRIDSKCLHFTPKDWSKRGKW
UniProt Q969R8: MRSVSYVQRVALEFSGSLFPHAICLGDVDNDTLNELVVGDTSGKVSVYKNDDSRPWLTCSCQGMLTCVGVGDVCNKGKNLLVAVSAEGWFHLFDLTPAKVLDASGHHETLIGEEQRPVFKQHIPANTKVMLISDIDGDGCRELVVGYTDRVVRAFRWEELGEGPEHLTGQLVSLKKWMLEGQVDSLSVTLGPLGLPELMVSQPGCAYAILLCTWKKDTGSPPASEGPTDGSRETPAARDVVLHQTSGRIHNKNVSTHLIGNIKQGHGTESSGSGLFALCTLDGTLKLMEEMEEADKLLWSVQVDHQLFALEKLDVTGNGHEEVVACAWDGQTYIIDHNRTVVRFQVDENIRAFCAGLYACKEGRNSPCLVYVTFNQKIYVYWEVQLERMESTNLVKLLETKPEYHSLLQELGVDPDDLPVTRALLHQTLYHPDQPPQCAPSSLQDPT
UniProt Q9H7Z6: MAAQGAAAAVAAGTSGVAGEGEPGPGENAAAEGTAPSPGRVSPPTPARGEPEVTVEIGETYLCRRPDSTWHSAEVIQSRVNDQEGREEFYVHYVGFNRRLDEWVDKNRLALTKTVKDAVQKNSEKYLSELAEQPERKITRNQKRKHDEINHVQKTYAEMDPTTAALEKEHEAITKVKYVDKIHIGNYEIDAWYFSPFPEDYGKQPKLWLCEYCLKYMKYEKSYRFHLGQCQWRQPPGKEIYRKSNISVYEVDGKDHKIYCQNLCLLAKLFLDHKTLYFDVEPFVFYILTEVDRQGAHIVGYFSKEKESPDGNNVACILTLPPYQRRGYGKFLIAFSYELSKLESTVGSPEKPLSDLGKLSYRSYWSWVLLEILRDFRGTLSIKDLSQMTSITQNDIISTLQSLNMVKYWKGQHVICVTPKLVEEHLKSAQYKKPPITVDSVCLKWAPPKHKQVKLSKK
UniProt P53990, whole entry, looked up: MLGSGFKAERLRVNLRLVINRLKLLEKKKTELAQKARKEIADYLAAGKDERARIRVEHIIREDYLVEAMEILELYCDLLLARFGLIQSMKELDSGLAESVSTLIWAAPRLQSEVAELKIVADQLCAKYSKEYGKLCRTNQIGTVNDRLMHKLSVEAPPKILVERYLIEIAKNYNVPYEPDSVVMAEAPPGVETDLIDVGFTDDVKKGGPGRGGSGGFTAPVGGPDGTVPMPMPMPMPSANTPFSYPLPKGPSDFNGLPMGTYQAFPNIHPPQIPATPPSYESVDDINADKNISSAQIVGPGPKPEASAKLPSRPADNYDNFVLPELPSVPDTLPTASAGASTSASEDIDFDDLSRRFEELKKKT
UniProt P23677, whole entry, looked up: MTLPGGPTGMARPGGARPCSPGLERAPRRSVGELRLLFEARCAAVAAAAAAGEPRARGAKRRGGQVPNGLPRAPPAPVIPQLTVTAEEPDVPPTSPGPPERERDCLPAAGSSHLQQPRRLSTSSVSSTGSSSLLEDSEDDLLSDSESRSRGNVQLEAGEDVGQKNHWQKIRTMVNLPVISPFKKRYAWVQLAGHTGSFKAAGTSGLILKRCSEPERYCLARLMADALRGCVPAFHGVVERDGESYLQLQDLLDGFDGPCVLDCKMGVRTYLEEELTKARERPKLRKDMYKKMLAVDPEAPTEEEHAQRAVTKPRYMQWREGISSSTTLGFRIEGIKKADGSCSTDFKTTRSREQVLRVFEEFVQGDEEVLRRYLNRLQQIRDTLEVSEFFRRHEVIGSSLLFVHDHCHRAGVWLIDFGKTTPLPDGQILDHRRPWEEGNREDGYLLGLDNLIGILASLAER
UniProt Q14653: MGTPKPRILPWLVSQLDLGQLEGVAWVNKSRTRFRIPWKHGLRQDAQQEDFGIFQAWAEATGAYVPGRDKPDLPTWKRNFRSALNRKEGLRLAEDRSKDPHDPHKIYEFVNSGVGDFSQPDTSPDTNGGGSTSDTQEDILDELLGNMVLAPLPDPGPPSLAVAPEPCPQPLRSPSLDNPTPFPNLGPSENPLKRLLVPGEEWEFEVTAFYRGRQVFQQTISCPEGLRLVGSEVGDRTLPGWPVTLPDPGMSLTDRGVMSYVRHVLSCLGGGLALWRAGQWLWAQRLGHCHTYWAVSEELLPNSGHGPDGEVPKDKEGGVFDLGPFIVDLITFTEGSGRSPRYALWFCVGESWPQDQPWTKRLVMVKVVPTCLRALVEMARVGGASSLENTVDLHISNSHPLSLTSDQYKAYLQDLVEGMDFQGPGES
UniProt Q6DN90: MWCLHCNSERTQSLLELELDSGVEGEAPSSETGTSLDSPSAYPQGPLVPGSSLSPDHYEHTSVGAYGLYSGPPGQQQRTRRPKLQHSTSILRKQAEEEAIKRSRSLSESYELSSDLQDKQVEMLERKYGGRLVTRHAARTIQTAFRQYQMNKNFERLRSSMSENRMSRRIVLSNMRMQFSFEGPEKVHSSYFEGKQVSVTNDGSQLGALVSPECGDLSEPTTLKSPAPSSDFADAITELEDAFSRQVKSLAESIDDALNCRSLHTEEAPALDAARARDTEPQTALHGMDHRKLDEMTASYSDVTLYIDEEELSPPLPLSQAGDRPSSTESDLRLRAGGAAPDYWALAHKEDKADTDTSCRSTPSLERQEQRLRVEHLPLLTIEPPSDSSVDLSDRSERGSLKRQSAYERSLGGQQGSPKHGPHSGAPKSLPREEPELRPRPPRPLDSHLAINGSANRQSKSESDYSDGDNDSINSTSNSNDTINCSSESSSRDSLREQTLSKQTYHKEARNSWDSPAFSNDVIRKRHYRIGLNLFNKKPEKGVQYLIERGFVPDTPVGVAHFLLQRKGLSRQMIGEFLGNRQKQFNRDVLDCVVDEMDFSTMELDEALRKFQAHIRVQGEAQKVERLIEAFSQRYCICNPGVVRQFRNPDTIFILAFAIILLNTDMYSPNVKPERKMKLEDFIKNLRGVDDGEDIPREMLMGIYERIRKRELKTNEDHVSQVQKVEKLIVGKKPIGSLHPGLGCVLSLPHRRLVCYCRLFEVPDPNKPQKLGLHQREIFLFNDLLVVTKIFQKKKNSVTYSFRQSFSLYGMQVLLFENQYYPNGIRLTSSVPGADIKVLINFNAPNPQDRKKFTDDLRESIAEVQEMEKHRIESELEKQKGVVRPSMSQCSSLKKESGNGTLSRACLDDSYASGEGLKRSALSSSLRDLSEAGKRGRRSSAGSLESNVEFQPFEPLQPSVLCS
UniProt Q7L273: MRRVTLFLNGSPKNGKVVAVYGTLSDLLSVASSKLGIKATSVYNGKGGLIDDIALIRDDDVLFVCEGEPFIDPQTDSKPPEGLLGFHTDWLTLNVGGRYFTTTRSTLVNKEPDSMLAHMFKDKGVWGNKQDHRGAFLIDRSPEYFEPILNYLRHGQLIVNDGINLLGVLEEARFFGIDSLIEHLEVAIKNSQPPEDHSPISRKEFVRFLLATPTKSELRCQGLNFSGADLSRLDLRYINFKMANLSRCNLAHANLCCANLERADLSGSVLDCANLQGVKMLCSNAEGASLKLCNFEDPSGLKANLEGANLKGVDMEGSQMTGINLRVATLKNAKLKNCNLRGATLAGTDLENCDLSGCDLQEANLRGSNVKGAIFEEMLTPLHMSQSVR

Columns and labels:
Experiment in all cases: log2 fold change, soluble protein after heating vs DMSO (PISA); higher = thermal stabilisation; K562 lysate, 10 uM; active = over 0.2 and 3.5 SD of the protein, either way, in both replicates (recomputed)
lapatinib = compound: CS(=O)(=O)CCNCc1ccc(-c2ccc3ncnc(Nc4ccc(OCc5cccc(F)c5)c(Cl)c4)c3c2)o1 [lapatinib]
Method in brief: (§1)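 Dounce homogenisation of K562 pellets in PBS pH 7.4 with 1 mM MgCl2 produced a crude extract, used at 1 mg/mL protein. Exposure to 10 μM compound lasted 30 min, and aliquots were then heated for 3 min across 48°C-58°C, pooled and brought to 0.5% NP-40 at 4°C. The supernatant after 21,000xg for 90 min was quantified by TMTpro 16plex LC-MS/MS with channel sums equalised. Duplicate values are given as log-two fold change in thermal stability relative to solvent controls.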

pictilisib = compound: CS(=O)(=O)N1CCN(Cc2cc3nc(-c4cccc5[nH]ncc45)nc(N4CCOCC4)c3s2)CC1 [pictilisib]
Method in brief: as §1

crizotinib = compound: C[C@@H](Oc1cc(-c2cnn(C3CCNCC3)c2)cnc1N)c1c(Cl)ccc(F)c1Cl [crizotinib]
Method in brief: as §1

[1] = compound: C[C@H](C1=CC=C(C=C1)C(=O)NC2=C3C=CNC3=NC=C2)N
Method in brief: as §1

duvelisib = compound: C[C@H](Nc1ncnc2nc[nH]c12)c1cc2cccc(Cl)c2c(=O)n1-c1ccccc1 [duvelisib]
Method in brief: as §1

gandotinib = compound: Cc1cc(Nc2cc(CN3CCOCC3)c3nc(C)c(Cc4ccc(Cl)cc4F)n3n2)n[nH]1 [gandotinib]
Method in brief: as §1

tozasertib = compound: Cc1cc(Nc2cc(N3CCN(C)CC3)nc(Sc3ccc(NC(=O)C4CC4)cc3)n2)n[nH]1 [tozasertib]
Method in brief: as §1

doramapimod = compound: Cc1ccc(-n2nc(C(C)(C)C)cc2NC(=O)Nc2ccc(OCCN3CCOCC3)c3ccccc23)cc1 [doramapimod]
Method in brief: as §1

bafetinib = compound: Cc1ccc(NC(=O)c2ccc(CN3CC[C@H](N(C)C)C3)c(C(F)(F)F)c2)cc1Nc1nccc(-c2cncnc2)n1 [bafetinib]
Method in brief: as §1

[2] = compound: Cc1cccc(CC(=O)N2CCc3c2ccc(-c2cn(C)c4ncnc(N)c24)c3F)n1
Method in brief: as §1

nilotinib = compound: Cc1cn(-c2cc(NC(=O)c3ccc(C)c(Nc4nccc(-c5cccnc5)n4)c3)cc(C(F)(F)F)c2)cn1 [nilotinib]
Method in brief: as §1

[3] = compound: Cc1nc(Nc2n[nH]c3c2CN(C(=O)N[C@H](CN(C)C)c2ccccc2)C3(C)C)c2sccc2n1
Method in brief: as §1

dasatinib = compound: Cc1nc(Nc2ncc(C(=O)Nc3c(C)cccc3Cl)s2)cc(N2CCN(CCO)CC2)n1 [dasatinib]
Method in brief: as §1

[4] = compound: Cc1ncc(-c2ccnc(Nc3ccc(S(C)(=O)=O)cc3)n2)n1C(C)C
Method in brief: as §1

[5] = compound: Cn1cc(-c2ccc3c(c2)CCN3C(=O)Cc2cccc(C(F)(F)F)c2)c2c(N)ncnc21
Method in brief: as §1

quisinostat = compound: Cn1cc(CNCC2CCN(c3ncc(C(=O)NO)cn3)CC2)c2ccccc21 [quisinostat]
Method in brief: as §1

tipifarnib = compound: Cn1cncc1[C@@](N)(c1ccc(Cl)cc1)c1ccc2c(c1)c(-c1cccc(Cl)c1)cc(=O)n2C [tipifarnib]
Method in brief: as §1

[6] = compound: NC(=O)Nc1cc(-c2cccc(F)c2)sc1C(=O)N[C@H]1CCCNC1
Method in brief: as §1

[7] = compound: NC(=O)c1cnc(N[C@@H]2CCCC[C@@H]2N)nc1Nc1cccc(-n2nccn2)c1
Method in brief: as §1

[8] = compound: NC1(c2ccc(-c3nc4ccn5c(=O)[nH]nc5c4cc3-c3ccccc3)cc2)CCC1
Method in brief: as §1

Measured: log2 fold change

ITPK1 (UniProt Q13572)
inactive: lapatinib 0.049 | pictilisib -0.046 | crizotinib -0.025 | [1] 0.069 | duvelisib 0.035 | gandotinib -0.023 | tozasertib 0.03 | doramapimod 0.057 | bafetinib -0.05 | [2] 0.045 | nilotinib -0.015 | [3] 0.067 | dasatinib 0.047 | [4] 0.035 | [5] 0.018 | quisinostat -0.051 | tipifarnib -0.063 | [6] 0.056 | [7] -0.012 | [8] 0.04

KCTD2 (UniProt Q14681)
inactive: lapatinib -0.001 | pictilisib -0.12 | crizotinib -0.135 | [1] 0.426 | duvelisib -0.069 | gandotinib 0.042 | tozasertib -0.215 | doramapimod 0.032 | bafetinib 0.045 | [2] -0.067 | nilotinib 0.001 | [3] 0.061 | dasatinib 0.002 | [4] -0.023 | [5] 0.033 | quisinostat -0.061 | tipifarnib -0.081 | [6] -0.158 | [7] -0.116

ITSN2 (UniProt Q9NZM3)
inactive: lapatinib 0.002 | pictilisib -0.09 | crizotinib -0.014 | [1] -0.012 | duvelisib 0.014 | gandotinib -0.089 | tozasertib 0.012 | doramapimod 0.026 | bafetinib -0.035 | [2] 0.001 | nilotinib 0.016 | [3] -0.026 | dasatinib -0.069 | [4] -0.043 | [5] -0.011 | quisinostat -0.046 | tipifarnib -0.024 | [6] 0.031 | [7] 0.051 | [8] 0.046

KAT5 isoform 3 (UniProt Q92993)
inactive: lapatinib -0.03 | pictilisib 0.062 | crizotinib -0.008 | [1] 0.032 | duvelisib 0.013 | gandotinib -0.085 | tozasertib -0.171 | doramapimod 0.009 | bafetinib -0.055 | [2] -0.051 | nilotinib 0.183 | [3] 0.104 | dasatinib -0.167 | [4] 0 | [5] 0.18 | quisinostat -0.111 | tipifarnib -0.4 | [6] 0.065 | [7] 0.023 | [8] 0.192

ITFG2 (UniProt Q969R8)
inactive: lapatinib 0.003 | pictilisib -0.053 | crizotinib 0.012 | [1] -0.008 | duvelisib 0.036 | gandotinib 0.024 | tozasertib 0.062 | doramapimod 0.041 | bafetinib -0.002 | [2] 0.009 | nilotinib -0.01 | [3] -0.049 | dasatinib -0.048 | [4] -0.016 | [5] -0.034 | quisinostat 0.019 | tipifarnib 0.028 | [6] 0.008 | [7] 0.025 | [8] 0.005

INTS7 (UniProt Q9NVH2)
inactive: lapatinib 0.01 | pictilisib -0.032 | crizotinib -0.07 | [1] -0.096 | duvelisib 0.01 | gandotinib -0.077 | tozasertib -0.01 | doramapimod 0.4 | bafetinib 0.141 | [2] 0.012 | nilotinib -0.02 | [3] -0.014 | dasatinib -0.004 | [4] -0.009 | [5] -0.008 | quisinostat -0.071 | tipifarnib 0.037 | [6] 0.088 | [7] 0.032 | [8] -0.002

ITGAV (UniProt P06756)
inactive: lapatinib -0.015 | pictilisib 0.003 | crizotinib -0.005 | [1] -0.054 | duvelisib -0.007 | gandotinib 0.001 | tozasertib 0.012 | doramapimod 0.014 | bafetinib 0 | [2] 0.011 | nilotinib 0.048 | [3] 0 | dasatinib 0.046 | [4] -0.001 | [5] -0.004 | quisinostat -0.012 | tipifarnib -0.02 | [6] -0.005 | [7] 0.007 | [8] 0.01

KAT8 (UniProt Q9H7Z6)
inactive: lapatinib 0.01 | pictilisib -0.056 | crizotinib -0.012 | [1] -0.02 | duvelisib 0.011 | gandotinib -0.029 | tozasertib 0.045 | doramapimod 0.055 | bafetinib -0.014 | [2] -0.037 | nilotinib -0.034 | [3] 0.028 | dasatinib 0.037 | [4] -0.008 | [5] -0.034 | quisinostat -0.104 | tipifarnib -0.029 | [6] 0.018 | [7] 0.01 | [8] 0.026

IST1 (UniProt P53990)
inactive: lapatinib -0.029 | pictilisib 0.013 | crizotinib 0.023 | [1] 0 | duvelisib -0.004 | gandotinib -0.021 | tozasertib 0.036 | doramapimod 0.025 | bafetinib -0.013 | [2] -0.023 | nilotinib -0.004 | [3] -0.037 | dasatinib -0.035 | [4] 0.008 | [5] 0.021 | quisinostat 0.027 | tipifarnib 0.011 | [6] -0.032 | [7] 0 | [8] 0.011

IRF2 (UniProt P14316)
inactive: lapatinib 0.044 | pictilisib 0.057 | crizotinib -0.004 | [1] -0.028 | duvelisib 0.057 | gandotinib 0.125 | tozasertib 0.015 | doramapimod 0.039 | bafetinib 0.029 | [2] 0.038 | nilotinib 0.001 | [3] -0.012 | dasatinib 0.049 | [4] 0.059 | [5] -0.001 | quisinostat 0.029 | tipifarnib -0.021 | [6] -0.028 | [7] 0.002 | [8] 0.02

ITPKA (UniProt P23677)
inactive: lapatinib -0.043 | pictilisib -0.055 | crizotinib -0.012 | [1] -0.012 | duvelisib -0.038 | gandotinib -0.012 | tozasertib 0.051 | doramapimod 0.016 | bafetinib -0.043 | [2] 0.051 | nilotinib -0.005 | [3] 0.045 | dasatinib -0.064 | [4] -0.001 | [5] -0.002 | quisinostat -0.026 | tipifarnib -0.001 | [6] 0.044 | [7] 0.021 | [8] -0.027

IRF3 (UniProt Q14653)
inactive: lapatinib -0.029 | pictilisib -0.045 | crizotinib -0.023 | [1] -0.001 | duvelisib 0.012 | gandotinib -0.034 | tozasertib -0.004 | doramapimod 0.004 | bafetinib -0.018 | [2] -0.016 | nilotinib -0.008 | [3] -0.034 | dasatinib -0.017 | [4] -0.003 | [5] 0.012 | quisinostat -0.029 | tipifarnib 0.002 | [6] 0.006 | [7] 0.011 | [8] -0.033

KBTBD4 isoform 2 (UniProt Q9NVX7)
inactive: lapatinib 0.03 | pictilisib -0.015 | crizotinib -0.038 | [1] -0.075 | duvelisib 0.056 | gandotinib 0.109 | tozasertib -0.068 | doramapimod -0.023 | bafetinib -0.013 | [2] 0.047 | nilotinib 0.063 | [3] -0.019 | dasatinib -0.017 | [4] -0.086 | [5] -0.022 | quisinostat -0.038 | tipifarnib 0.154 | [6] 0.086 | [7] -0.018 | [8] -0.039

Quoted at random: 2 entries already listed
ITPKA (UniProt P23677)
inactive: lapatinib -0.043 | pictilisib -0.055 | crizotinib -0.012 | [1] -0.012 | duvelisib -0.038 | gandotinib -0.012 | tozasertib 0.051 | doramapimod 0.016 | bafetinib -0.043 | [2] 0.051 | nilotinib -0.005 | [3] 0.045 | dasatinib -0.064 | [4] -0.001 | [5] -0.002 | quisinostat -0.026 | tipifarnib -0.001 | [6] 0.044 | [7] 0.021 | [8] -0.027

IRF3 (UniProt Q14653)
inactive: lapatinib -0.029 | pictilisib -0.045 | crizotinib -0.023 | [1] -0.001 | duvelisib 0.012 | gandotinib -0.034 | tozasertib -0.004 | doramapimod 0.004 | bafetinib -0.018 | [2] -0.016 | nilotinib -0.008 | [3] -0.034 | dasatinib -0.017 | [4] -0.003 | [5] 0.012 | quisinostat -0.029 | tipifarnib 0.002 | [6] 0.006 | [7] 0.011 | [8] -0.033

The listing continues.

IQSEC2 (UniProt Q5JU85)
inactive: lapatinib -0.063 | pictilisib -0.133 | crizotinib -0.088 | [1] -0.056 | duvelisib 0.252 | gandotinib -0.078 | tozasertib -0.023 | doramapimod 0.008 | bafetinib -0.144 | [2] -0.018 | nilotinib 0.044 | [3] -0.063 | dasatinib 0.174 | [4] -0.142 | [5] 0.179 | quisinostat -0.05 | tipifarnib -0.004 | [6] 0.032 | [7] 0.072 | [8] -0.018

IQSEC1 (UniProt Q6DN90)
inactive: lapatinib 0.117 | pictilisib -0.001 | crizotinib -0.011 | [1] 0.098 | duvelisib -0.025 | gandotinib -0.049 | tozasertib -0.015 | doramapimod -0.016 | bafetinib -0.051 | [2] 0.053 | nilotinib 0.146 | [3] -0.115 | dasatinib 0.04 | [4] -0.176 | [5] 0.051 | quisinostat -0.063 | tipifarnib -0.142 | [6] 0.057 | [7] -0.067 | [8] 0.001

KCTD9 (UniProt Q7L273)
inactive: lapatinib -0.003 | pictilisib -0.025 | crizotinib 0.051 | [1] -0.036 | duvelisib 0.019 | gandotinib 0.036 | tozasertib 0.057 | doramapimod -0.035 | bafetinib 0.045 | [2] 0.035 | nilotinib 0.061 | [3] -0.035 | dasatinib -0.05 | [4] 0.02 | [5] -0.009 | quisinostat 0.025 | tipifarnib 0.054 | [6] -0.003 | [7] -0.02 | [8] 0.091
